Our source for the binding values is article PMC9688295.

Chains of the proteins cited; added tags and fusions are not shown. Residues count along the entry.
UniProt P62813, residues 28-455: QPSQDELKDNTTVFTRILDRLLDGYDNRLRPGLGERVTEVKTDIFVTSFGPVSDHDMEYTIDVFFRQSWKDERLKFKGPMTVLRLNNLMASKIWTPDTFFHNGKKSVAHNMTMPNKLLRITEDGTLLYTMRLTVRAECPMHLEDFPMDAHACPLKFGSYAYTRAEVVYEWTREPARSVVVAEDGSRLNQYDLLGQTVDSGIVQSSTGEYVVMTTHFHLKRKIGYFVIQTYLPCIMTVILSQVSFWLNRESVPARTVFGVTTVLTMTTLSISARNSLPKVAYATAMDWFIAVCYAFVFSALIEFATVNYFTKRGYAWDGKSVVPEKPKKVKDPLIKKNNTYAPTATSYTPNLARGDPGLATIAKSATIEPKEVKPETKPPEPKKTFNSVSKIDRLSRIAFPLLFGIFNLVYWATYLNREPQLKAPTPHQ

These are yes or no findings as the source states them, for the method shown. In cells and extracts the contact can be indirect. Some entries that bind do so weakly or less than the wild type.

The assay has as its target γ-aminobutyric acid type A receptor α1 (rat (endogenous in medullary dorsal horn tissue)) (UniProt P62813). Briefly: co-IP; primary antibody (rabbit anti-GABARα1, or normal IgG as control) on Protein A + G Agarose, incubated 24 h at 4 °C with ≥500 µg lysate protein of medullary dorsal horn tissue of epilepsy-migraine comorbid rats; washed with cold GLB+ buffer; precipitates immunoblotted for GABAARα1, TLR4 and GAPDH. (Immunoblotting shows a protein as a band on a membrane.)

B1: Toll-like receptor 4 (receptor, UniProt Q9QX05 26-835)
chain: NPCIEVLPNITYQCMDQNLSKIPHDIPYSTKNLDLSFNPLKILRSYSFTNFSQLQWLDLSRCEIETIEDKAWHGLNQLSTLVLTGNPIKSFSPGSFSGLTNLENLVAVETKMTSLEGFHIGQLISLKKLNVAHNLIHSFKLPEYFSNLTNLEHVDLSYNYIQTISVKDLQFLRENPQVNLSLDLSLNPIDSIQAQAFQGIRLHELTLRSNFNSSNVLKMCLQNMTGLHVHRLILGEFKNERNLESFDRSVMEGLCNVSIDEFRLTYINHFSDDIYNLNCLANISAMSFTGVHIKHIADVPRHFKWQSLSIIRCHLKPFPKLSLPFLKSWTLTTNREDISFGQLALPSLRYLDLSRNAMSFRGCCSYSDFGTNNLKYLDLSFNGVILMSANFMGLEELEYLDFQHSTLKKVTEFSVFLSLEKLLYLDISYTNTKIDFDGIFLGLISLNTLKMAGNSFKDNTLSNVFTNTTNLTFLDLSKCQLEQISRGVFDTLYRLQLLNMSHNNLLFLDPSHYKQLYSLRTLDCSFNRIETSKGILQHFPKSLAVFNLTNNSVACICEYQNFLQWVKDQKMFLVNVEQMKCASPIDMKASLVLDFTNSTCYIYKTIISVSVVSVLVVATVAFLIYHFYFHLILIAGCKKYSRGESIYDAFVIYSSQNEDWVRNELVKNLEEGVPRFQLCLHYRDFIPGVAIAANIIQEGFHKSRKVIVVVSRHFIQSRWCIFEYEIAQTWQFLSSRSGIIFIVLEKVEKSLLRQQVELYRLLSRNTYLEWEDNALGRHIFWRRLKKALLDGKALNPDETSEEEQEATTLT
As to B1, the binding result is recorded as “binds”.
